# At least one compound was matched to its structure with a doubt left.
# System: hPSCs
# Assay: HOX and NC gene expression (qRT-PCR) during neural crest differentiation of hPSCs
# Assay type: cell-based, human
# Experimental: NC differentiation. The basic NC differentiation protocols used are based on previous works (Fattahi et al., Nature 531, 105-109, 2016; Tchieu et al., Cell Stem Cell 21, 399-410 e397, 2017). Briefly, matrigel (Thermo Fisher, A1413201) was diluted at 1:100 ratio in DMEMF-12 (Thermo Fisher, 21331020) and plates were coated with the diluted matrigel overnight at 4° C. For inducing differentiation, hESCs or iPSCs were dissociated at 70%-80% confluence using EDTA dissociation buffer and replated as a single cell suspension on matrigel-coated 24-well plates at a density of 100K cells/cm^2 in E6 medium containing 10 μM ROCK-inhibitor (Y-27632; R&D, 1254). The cells were kept in E6 medium (Thermo Fisher, A1516401)+Y-27632 overnight. The next day, the medium was switched to NC induction medium. For cranial differentiation, the cells were kept in E6 medium containing 10 μM SB431542 (R&D, 1614), […] (R&D, 314-BP), and 0.6 μM CHIR (R&D, 4423) for the first 2 days and then switched to E6 medium containing 10 μM SB431542 and 1.5 μM CHIR for 10 days. For vagal NC the same conditions were used with an additional 1 μM RA (Sigma, R2625) added to the medium starting from D6. To establish the sacral NC protocol, the cranial NC protocol was modified with varying concentrations of FGF2 (R&D, 233-FB/CF), CHIR and GDF11 (Peprotech, 120-11), added at different time points as detailed in the results section. For the generation of melanocytes, 100 nM EDN3 (American Peptide company, 88-5-10B) was added to the sacral NC protocol from day 14 to day 20. In experiments testing the RA hypothesis, the sacral NC protocol was modified using either 1 μM RA (Sigma, R2625) or 100 nM AGN (Tocris, 5758) as detailed in the experimental design section.
# RNA extraction and RT-qPCR. RNA was prepared from samples collected with the Zymo Direct-zol Kit and extracted using the Direct-zol RNA MiniPrep kit. cDNA was generated using the iScript Reverse Transcription Supermix for RT-qPCR. For qPCR analysis, primers were obtained from QIAGEN or IDT and the reactions were performed following manufacturers' instructions using SsoFast EvaGreen® Supermix. The Assays were run on BioRad CFX384 Real-Time PCR machine. Results were normalized to GAPDH housekeeping genes.
compound,measurement,setting,value
CC1=C(/C=C/C(C)=C/C=C/C(C)=C/C(=O)O)C(C)(C)CCC1 [RA],anterior HOX genes HOXB2 and HOXB6,"1 μM RA, trunk and sacral NC conditions",promotes
same,HOXC9 expression,RA 1 μM or AGN 100 nM added to NC protocol,reduced
same,HOXC11 and HOXC13 expression,RA activation in GDF11 treated cultures,suppressed
same,expression of trunk or sacral level HOX genes,"RA in addition to FGF2 and CHIR, data not shown",did not increase expression

# Source: US20240279601A1, “METHODS OF GENERATING SACRAL NEURAL CREST LINEAGES AND USES THEREOF” (MEMORIAL SLOAN-KETTERING CANCER CENTER, priority 2021, published 2024)
